Experimental data taken from EP3231875A1.
Results are given in words; binding and its absence hold for the method and conditions named. In cells and extracts the contact can be indirect. Some binding calls cover weakened binding; strength is not graded here.

The chains behind the UniProt entries cited, without tags or fusion partners.
UniProt P51587: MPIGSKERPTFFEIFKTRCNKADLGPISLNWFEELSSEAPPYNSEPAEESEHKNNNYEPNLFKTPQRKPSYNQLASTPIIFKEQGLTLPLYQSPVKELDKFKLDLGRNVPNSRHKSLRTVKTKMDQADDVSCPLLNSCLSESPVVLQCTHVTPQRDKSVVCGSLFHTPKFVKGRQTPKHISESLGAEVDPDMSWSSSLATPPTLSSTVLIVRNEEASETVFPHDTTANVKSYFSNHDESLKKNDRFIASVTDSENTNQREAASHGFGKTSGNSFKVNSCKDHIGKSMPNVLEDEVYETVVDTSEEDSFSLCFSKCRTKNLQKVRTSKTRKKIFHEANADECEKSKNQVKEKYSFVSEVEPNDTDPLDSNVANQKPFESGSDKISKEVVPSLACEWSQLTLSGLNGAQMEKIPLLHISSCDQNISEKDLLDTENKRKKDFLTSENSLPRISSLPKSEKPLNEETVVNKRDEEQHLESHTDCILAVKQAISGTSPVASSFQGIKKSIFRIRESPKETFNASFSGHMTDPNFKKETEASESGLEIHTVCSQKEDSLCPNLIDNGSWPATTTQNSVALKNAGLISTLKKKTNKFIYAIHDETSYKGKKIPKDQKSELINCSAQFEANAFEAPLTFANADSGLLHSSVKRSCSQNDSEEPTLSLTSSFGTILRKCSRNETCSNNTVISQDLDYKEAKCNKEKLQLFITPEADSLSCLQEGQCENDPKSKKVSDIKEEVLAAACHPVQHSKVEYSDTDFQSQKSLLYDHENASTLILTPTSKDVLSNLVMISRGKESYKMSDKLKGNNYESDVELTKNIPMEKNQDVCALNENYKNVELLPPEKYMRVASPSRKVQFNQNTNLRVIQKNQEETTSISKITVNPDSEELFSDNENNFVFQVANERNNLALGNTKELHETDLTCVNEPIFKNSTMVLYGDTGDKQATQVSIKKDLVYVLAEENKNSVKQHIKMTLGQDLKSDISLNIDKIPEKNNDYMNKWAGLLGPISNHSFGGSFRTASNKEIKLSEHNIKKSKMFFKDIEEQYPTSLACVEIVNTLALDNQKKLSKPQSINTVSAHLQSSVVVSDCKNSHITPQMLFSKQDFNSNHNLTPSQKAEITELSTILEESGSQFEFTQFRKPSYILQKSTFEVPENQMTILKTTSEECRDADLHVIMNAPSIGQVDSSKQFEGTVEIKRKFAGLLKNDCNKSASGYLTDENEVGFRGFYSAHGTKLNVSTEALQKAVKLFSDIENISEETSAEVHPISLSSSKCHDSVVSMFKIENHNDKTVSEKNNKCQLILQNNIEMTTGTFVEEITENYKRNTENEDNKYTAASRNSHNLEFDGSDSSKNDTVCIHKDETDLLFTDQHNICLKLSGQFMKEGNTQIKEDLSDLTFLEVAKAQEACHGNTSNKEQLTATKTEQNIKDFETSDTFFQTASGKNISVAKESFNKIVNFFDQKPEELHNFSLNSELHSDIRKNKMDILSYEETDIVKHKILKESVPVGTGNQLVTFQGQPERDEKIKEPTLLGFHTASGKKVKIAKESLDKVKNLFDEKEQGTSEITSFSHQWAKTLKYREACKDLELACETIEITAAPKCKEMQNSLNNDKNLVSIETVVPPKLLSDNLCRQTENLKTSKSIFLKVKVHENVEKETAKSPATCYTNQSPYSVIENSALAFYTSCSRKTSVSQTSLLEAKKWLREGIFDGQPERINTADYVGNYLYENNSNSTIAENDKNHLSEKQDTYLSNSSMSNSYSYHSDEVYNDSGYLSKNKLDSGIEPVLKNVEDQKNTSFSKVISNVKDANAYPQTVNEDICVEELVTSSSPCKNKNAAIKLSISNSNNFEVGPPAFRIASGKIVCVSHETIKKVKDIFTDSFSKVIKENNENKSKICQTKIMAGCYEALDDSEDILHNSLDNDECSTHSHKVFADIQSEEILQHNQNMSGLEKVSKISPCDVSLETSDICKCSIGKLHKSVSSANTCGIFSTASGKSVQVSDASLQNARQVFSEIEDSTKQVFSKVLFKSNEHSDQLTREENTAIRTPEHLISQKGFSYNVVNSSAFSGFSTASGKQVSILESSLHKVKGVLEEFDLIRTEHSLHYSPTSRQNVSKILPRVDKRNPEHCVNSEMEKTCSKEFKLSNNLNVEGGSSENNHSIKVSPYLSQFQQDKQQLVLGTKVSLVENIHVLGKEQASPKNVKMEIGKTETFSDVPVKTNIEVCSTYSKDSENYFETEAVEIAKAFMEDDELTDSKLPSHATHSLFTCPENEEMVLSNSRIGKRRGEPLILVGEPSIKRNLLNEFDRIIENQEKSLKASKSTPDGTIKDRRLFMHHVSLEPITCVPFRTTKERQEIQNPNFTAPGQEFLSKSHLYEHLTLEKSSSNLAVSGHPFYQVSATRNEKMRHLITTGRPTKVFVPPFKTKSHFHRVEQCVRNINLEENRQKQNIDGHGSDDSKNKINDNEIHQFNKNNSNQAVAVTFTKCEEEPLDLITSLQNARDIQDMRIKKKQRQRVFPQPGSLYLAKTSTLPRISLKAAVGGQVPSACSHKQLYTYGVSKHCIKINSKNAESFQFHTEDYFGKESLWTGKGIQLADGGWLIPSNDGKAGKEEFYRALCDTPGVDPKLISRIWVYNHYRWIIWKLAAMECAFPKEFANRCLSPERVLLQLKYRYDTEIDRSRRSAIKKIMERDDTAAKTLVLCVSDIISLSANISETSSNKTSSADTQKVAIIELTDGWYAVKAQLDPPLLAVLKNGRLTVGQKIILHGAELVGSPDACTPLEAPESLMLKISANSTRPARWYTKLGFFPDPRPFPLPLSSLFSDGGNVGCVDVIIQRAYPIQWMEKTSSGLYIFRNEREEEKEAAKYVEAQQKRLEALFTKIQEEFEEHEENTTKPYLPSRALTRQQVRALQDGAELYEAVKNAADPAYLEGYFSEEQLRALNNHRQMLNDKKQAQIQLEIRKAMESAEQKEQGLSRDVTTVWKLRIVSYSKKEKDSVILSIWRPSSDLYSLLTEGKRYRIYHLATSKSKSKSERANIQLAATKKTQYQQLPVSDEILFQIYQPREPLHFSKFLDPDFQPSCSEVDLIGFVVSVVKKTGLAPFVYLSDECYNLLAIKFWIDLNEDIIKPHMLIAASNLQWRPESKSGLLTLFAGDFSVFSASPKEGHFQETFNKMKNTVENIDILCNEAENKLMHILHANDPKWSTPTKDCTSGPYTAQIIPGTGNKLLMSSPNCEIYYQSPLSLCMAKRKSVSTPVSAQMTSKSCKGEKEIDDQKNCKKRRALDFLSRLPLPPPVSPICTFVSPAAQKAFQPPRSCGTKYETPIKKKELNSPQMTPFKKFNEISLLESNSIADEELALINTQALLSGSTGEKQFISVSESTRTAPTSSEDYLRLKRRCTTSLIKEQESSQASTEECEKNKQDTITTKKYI

Legend:
[1] = target: endogenous BRCA2 in HEK 293T cells (UniProt P51587); experiment: co-immunoprecipitation with anti-BRCA2 antibody from HEK 293T lysates, immunoblot
[2] = target: Flag-tagged BRCA2 overexpressed in HEK 293T cells (UniProt P51587); experiment: co-immunoprecipitation with anti-Flag M2 from HEK 293T lysates, immunoblot
[3] = target: endogenous BRCA2 in HEK 293T cells (UniProt P51587); experiment: title of the Figure 1 legend (yeast two-hybrid and co-immunoprecipitation)

Measured: binding

B1: Cyclin-Dependent Kinase 5 Regulatory Subunit Associated Protein 3 (CDK5RAP3), endogenous protein in HEK 293T cell lysates (protein, human, UniProt Q96JB5 1-506, looked up)
chain: MEDHQHVPIDIQTSKLLDWLVDRRHCSLKWQSLVLTIREKINAAIQDMPESEEIAQLLSGSYIHYFHCLRILDLLKGTEASTKNIFGRYSSQRMKDWQEIIALYEKDNTYLVELSSLLVRNVNYEIPSLKKQIAKCQQLQQEYSRKEEECQAGAAEMREQFYHSCKQYGITGENVRGELLALVKDLPSQLAEIGAAAQQSLGEAIDVYQASVGFVCESPTEQVLPMLRFVQKRGNSTVYEWRTGTEPSVVERPHLEELPEQVAEDAIDWGDFGVEAVSEGTDSGISAEAAGIDWGIFPESDSKDPGGDGIDWGDDAVALQITVLEAGTQAPEGVARGPDALTLLEYTETRNQFLDELMELEIFLAQRAVELSEEADVLSVSQFQLAPAILQGQTKEKMVTMVSVLEDLIGKLTSLQLQHLFMILASPRYVDRVTEFLQQKLKQSQLLALKKELMVQKQQEALEEQAALEPKLDLLLEKTKELQKLIEADISKRYSGRPVNLMGTSL
binds: all assays above
